The record followed here is publication PMC5301975.

By UniProt entry, the sequences of proteins in these tests, tags left out. Where a name states a change or a piece, a line headed by the entry shows the natural chain unless it says otherwise. Chains listed by the source or under a name are the forms on record and can include a tag or linker. Residues count along the entry.
Synaptotagmin I C2A domain GST fusion protein (P21707, residues 140-265): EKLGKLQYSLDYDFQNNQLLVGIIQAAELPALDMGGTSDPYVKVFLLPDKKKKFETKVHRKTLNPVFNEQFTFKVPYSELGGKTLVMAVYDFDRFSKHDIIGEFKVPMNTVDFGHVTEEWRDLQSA
Synaptotagmin I C2B domain GST fusion protein (P21707, residues 271-421): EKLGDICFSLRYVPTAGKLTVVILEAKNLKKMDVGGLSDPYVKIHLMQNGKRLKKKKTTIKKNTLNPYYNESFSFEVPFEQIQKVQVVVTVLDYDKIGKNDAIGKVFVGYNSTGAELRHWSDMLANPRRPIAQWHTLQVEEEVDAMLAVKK
UniProt P18484: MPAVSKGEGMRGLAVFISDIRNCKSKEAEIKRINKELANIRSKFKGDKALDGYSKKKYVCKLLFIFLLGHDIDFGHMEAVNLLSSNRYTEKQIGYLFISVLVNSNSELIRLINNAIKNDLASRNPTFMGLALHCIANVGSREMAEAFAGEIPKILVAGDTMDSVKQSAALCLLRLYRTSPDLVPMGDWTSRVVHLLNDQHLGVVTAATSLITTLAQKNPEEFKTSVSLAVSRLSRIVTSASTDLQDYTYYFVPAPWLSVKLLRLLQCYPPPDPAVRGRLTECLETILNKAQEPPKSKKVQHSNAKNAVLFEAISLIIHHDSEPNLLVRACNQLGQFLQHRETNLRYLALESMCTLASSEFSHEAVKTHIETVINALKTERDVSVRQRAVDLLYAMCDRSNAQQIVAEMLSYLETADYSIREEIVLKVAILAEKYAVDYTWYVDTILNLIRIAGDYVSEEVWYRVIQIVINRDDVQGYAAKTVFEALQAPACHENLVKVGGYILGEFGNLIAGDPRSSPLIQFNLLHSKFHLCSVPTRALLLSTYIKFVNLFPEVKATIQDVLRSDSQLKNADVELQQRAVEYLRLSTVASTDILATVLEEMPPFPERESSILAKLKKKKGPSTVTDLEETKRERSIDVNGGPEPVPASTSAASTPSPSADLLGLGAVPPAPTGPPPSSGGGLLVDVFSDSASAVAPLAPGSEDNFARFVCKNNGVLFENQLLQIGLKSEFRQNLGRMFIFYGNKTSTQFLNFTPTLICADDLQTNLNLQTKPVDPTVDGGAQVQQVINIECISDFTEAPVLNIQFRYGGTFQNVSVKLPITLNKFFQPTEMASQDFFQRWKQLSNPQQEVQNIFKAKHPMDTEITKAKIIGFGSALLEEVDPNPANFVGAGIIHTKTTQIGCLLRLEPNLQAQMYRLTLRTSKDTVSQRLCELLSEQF
UniProt Q9JKS6: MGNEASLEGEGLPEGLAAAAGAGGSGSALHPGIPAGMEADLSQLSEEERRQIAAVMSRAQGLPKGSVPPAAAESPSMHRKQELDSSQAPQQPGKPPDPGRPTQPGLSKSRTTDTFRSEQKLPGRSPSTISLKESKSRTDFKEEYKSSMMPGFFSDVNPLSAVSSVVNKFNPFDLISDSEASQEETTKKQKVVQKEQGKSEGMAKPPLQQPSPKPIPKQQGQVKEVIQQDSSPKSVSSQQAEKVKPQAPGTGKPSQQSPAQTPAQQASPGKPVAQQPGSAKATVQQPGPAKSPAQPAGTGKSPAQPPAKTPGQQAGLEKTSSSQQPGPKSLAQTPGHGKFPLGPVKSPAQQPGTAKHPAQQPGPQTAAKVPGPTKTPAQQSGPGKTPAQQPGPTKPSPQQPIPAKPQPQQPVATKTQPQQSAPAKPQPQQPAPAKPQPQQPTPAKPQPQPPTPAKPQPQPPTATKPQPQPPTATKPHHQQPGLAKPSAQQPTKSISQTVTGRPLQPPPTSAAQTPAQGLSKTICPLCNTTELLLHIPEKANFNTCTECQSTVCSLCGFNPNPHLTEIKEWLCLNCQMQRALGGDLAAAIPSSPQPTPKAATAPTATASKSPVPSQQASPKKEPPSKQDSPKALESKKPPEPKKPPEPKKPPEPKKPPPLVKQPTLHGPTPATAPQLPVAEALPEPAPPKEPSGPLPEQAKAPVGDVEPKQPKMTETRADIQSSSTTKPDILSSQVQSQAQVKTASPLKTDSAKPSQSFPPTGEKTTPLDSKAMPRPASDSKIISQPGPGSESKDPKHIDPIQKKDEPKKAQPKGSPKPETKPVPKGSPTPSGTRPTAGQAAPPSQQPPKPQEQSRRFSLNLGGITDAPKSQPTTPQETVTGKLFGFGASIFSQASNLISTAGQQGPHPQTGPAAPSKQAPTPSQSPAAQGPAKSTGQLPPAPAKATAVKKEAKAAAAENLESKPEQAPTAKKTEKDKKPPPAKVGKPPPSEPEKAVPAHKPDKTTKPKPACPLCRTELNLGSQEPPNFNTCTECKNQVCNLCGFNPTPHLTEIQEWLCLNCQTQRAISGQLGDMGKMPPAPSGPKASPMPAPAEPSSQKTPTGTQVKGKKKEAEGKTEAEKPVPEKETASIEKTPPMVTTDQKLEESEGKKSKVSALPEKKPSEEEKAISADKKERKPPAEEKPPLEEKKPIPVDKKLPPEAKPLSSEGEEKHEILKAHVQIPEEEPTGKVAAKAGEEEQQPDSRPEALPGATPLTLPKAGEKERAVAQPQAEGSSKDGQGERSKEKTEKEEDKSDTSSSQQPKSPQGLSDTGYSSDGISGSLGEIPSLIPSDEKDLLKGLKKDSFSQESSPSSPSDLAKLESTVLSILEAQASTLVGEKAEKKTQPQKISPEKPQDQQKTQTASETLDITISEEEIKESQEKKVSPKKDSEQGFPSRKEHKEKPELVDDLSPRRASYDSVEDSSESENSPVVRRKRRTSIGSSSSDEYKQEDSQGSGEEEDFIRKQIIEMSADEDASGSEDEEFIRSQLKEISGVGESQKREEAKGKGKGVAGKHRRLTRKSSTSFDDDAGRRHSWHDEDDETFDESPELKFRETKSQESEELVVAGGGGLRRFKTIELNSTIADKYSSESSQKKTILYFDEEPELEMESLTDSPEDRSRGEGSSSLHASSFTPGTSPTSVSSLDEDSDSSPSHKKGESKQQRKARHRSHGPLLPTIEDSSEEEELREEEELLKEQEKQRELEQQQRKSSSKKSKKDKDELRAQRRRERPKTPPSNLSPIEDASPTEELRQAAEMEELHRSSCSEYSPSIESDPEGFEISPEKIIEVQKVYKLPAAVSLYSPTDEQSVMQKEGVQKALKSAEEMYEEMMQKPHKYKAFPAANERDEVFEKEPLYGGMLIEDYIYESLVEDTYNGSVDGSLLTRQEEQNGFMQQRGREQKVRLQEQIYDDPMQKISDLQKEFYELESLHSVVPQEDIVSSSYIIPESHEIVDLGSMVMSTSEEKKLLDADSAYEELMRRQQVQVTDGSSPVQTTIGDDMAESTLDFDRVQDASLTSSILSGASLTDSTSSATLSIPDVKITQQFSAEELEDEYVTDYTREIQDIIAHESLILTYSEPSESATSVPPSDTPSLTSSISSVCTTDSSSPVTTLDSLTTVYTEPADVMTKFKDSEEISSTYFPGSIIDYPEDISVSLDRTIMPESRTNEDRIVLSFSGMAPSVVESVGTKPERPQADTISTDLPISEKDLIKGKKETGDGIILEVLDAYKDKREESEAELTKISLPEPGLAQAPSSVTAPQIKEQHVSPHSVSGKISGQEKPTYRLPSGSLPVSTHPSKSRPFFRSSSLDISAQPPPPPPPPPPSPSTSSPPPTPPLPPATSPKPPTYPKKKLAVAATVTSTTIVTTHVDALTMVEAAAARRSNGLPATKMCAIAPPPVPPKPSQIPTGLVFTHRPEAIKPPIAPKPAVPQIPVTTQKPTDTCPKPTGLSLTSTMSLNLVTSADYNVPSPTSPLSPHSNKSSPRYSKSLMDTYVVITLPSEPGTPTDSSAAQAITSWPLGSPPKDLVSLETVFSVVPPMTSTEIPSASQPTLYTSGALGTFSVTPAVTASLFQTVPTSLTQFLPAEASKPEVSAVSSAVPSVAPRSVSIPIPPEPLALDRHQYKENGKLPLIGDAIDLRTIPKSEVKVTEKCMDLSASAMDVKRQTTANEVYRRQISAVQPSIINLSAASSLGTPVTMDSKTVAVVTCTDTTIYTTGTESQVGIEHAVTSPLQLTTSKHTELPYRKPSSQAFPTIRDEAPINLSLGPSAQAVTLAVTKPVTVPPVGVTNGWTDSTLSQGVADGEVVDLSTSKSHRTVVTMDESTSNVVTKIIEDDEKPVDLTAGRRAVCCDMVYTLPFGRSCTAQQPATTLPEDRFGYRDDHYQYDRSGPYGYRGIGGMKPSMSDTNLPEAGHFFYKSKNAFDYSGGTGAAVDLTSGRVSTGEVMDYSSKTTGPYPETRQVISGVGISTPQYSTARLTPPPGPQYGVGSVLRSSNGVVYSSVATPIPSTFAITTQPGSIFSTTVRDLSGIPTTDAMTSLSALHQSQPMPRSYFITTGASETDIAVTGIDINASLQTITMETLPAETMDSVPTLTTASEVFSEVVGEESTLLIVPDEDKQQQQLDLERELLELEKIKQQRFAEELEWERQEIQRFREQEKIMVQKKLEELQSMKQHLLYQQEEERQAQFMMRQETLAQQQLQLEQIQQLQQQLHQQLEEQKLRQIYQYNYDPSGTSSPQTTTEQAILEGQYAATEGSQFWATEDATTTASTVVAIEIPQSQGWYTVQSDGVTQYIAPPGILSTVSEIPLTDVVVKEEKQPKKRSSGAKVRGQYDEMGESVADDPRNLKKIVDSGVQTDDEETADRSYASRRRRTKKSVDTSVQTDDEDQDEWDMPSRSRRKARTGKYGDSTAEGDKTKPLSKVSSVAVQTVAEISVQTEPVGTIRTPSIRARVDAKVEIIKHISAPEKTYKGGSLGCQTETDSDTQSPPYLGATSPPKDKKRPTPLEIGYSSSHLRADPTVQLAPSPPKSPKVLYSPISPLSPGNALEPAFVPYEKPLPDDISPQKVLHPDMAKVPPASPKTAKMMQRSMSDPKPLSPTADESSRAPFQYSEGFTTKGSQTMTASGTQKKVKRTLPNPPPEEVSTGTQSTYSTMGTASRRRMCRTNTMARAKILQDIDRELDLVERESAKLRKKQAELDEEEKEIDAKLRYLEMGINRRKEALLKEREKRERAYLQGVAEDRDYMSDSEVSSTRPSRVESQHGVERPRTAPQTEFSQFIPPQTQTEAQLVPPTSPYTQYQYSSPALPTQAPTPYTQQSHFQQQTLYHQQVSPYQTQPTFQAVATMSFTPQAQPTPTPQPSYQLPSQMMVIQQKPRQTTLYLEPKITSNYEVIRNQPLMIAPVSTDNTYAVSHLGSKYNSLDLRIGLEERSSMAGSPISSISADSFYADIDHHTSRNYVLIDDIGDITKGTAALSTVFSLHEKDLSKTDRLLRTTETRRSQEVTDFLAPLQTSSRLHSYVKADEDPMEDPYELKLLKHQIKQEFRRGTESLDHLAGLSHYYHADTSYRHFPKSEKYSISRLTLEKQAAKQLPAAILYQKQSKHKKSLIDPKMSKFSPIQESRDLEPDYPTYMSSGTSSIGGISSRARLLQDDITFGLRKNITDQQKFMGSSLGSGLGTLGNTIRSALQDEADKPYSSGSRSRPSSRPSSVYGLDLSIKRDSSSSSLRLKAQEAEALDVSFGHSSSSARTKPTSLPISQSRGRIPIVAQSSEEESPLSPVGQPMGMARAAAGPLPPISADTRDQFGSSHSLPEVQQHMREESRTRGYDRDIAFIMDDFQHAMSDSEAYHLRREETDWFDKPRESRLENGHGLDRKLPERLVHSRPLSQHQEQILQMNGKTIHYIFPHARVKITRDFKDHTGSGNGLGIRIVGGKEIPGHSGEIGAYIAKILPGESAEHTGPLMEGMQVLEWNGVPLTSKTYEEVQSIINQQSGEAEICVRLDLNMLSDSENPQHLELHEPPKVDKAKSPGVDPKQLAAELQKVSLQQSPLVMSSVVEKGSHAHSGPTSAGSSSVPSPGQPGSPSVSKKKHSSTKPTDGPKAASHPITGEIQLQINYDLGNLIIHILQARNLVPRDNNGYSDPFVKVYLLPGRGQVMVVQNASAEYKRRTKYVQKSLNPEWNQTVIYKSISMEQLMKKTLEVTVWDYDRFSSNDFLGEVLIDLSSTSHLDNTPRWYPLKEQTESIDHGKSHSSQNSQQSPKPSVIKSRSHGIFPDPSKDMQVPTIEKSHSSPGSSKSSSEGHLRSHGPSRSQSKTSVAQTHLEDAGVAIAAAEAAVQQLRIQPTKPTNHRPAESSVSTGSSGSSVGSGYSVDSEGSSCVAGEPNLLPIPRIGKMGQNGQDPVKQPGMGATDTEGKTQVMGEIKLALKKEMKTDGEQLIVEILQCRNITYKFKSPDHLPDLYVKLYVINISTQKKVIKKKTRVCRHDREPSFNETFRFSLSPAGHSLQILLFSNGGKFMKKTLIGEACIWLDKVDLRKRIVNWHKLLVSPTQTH
UniProt P61265: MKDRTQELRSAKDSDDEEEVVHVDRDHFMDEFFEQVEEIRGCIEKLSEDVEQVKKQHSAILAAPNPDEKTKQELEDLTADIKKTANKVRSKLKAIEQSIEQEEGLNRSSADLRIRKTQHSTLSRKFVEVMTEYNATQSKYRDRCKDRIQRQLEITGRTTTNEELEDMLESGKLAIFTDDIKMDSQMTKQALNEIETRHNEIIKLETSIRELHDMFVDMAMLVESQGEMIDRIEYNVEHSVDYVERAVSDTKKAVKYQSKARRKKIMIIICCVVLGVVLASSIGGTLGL

Test [1] deals with Synaptotagmin I C2B domain GST fusion protein (rat) (UniProt P21707). The test is described as follows: affinity purification with mass spectrometry; GST-C2A or GST-C2B bound to glutathione-sepharose beads; rat brain extract (10 mM Hepes-NaOH, 150 mM NaCl, pH 7.4) precleared with bead-bound GST; incubated overnight at 4 °C; washed with RIPA buffer containing 150 mM and 300 mM NaCl; eluted by boiling in SDS loading buffer; SDS-PAGE, in-gel digestion, CapLC-MS/MS; in triplicate; only the target purified.

Test [2] addresses Synaptotagmin I C2A domain GST fusion protein (rat) (UniProt P21707). The description is as above.

Results are given in words; binding and its absence hold for the method and conditions named. Binding seen in cells or lysates may run through a third protein. A yes stands for co-enrichment or nearness to the bait. Other partners may have been found. A no says only that the protein was not detected with the bait.

For the molecule “AP-2 complex subunit alpha-2 (from UniProt P18484 1-938)”, the results for the binding entry in test [1] and in test [2] were “binds” and “no binding”, respectively.
Take “AP-2 complex subunit mu (from UniProt P84092 1-435)”: the binding entry in test [1] is reported as “binds”; in test [2], “no binding”.
The matching figures for “Calcium/calmodulin-dependent Protein kinase type II subunit alpha (from UniProt P11275 1-478)”: “binds” and “binds”.
Turning to “Glutamine synthetase (from UniProt P09606 1-373)”, the binding entry in test [1] and in test [2] was “binds” each time.
As for “Protein kinase C gamma type (from UniProt P63319 1-697)”, the binding result in test [1] is on record as “binds”; in test [2], “no binding”.
As for “Protein piccolo (from UniProt Q9JKS6 1-5085)”, the binding entry in test [1] was “no binding”; in test [2], “binds”.
As to Syntaxin-1B (from UniProt P61265 1-288), the binding entry in test [1] is reported as “binds”; in test [2], “no binding”.
Consider “Unconventional myosin-Va (from UniProt Q9QYF3 1-1828)”, for which the results for the binding entry in test [1] and in test [2] were “binds” and “no binding”, respectively.
In the case of “Vesicle-fusing ATPase (from UniProt Q9QUL6 1-744)”, the binding entry was “binds” in test [1] and “no binding” in test [2].
Regarding “Voltage-dependent N-type calcium channel subunit alpha-1B (from UniProt Q02294 1-2336)”, the binding entry in test [1] and in test [2] was “binds” throughout.

B1: Excitatory amino acid transporter 1 (protein, UniProt P24942 1-543)
chain: MTKSNGEEPRMGSRMERFQQGVRKRTLLAKKKVQNITKEDVKSYLFRNAFVLLTVSAVIVGTILGFALRPYKMSYREVKYFSFPGELLMRMLQMLVLPLIISSLVTGMAALDSKASGKMGMRAVVYYMTTTIIAVVIGIIIVIIIHPGKGTKENMYREGKIVQVTAADAFLDLIRNMFPPNLVEACFKQFKTSYEKRSFKVPIQANETLLGAVINNVSEAMETLTRIREEMVPVPGSVNGVNALGLVVFSMCFGFVIGNMKEQGQALREFFDSLNEAIMRLVAVIMWYAPLGILFLIAGKILEMEDMGVIGGQLAMYTVTVIVGLLIHAVIVLPLLYFLVTRKNPWVFIGGLLQALITALGTSSSSATLPITFKCLEENNGVDKRITRFVLPVGATINMDGTALYEALAAIFIAQVNNFDLNFGQIITISITATAASIGAAGIPQAGLVTMVIVLTSVGLPTDDITLIIAVDWFLDRLRTTTNVLGDSLGAGIVEHLSRHELKNRDVEMGNSVIEENEMKKPYQLIAQDNEPEKPVADSETKM
Regarding B1, the binding entry in test [1] is recorded as “binds”; in test [2], “no binding”.

B2: SH3-containing GRB2-like protein 3-interacting protein 1 (protein, UniProt P0DJJ3 1-827)
chain: MMEGLKKRTRKAFGIRKKEKDTDSTGSPDRDGMQPSPHEPPYHSKAECAREGGKKASKKSNGAPNGFYAEIDWERYNSPELDEEGYSIRPEEPGSTKGKHFYSSSESEEEEESHKKFNIKIKPLQSKDVLKNAATVDELKASIGNIALSPSPVRKSPRRSPGAIKRNLSSEEVARPRRSTPTPELTSKKPLDDTLALAPLFGPPLESAFDEQKTEVLLDQPEIWGSGQPINPSMESPKLARPFPTGTPPPLPPKAVPATPPRTGSPLTVATGNDQAATEAKIEKLPSISDLDSIFGPVLSPKSVAVNTEEKWVHFSDASPEHVTPELTPREKVVTPPAASDIPADSPAPGPPGPPGSAGPPGPPGPRHVPSPLNLEEVQKKVAEQTFIKDDYLETLSSPKECGLGQRATPPPPPPPTYRTVVSSPGPGSGSGTGTASGASSPARPATPLVPCSSTTPPPPPPRPPSRPKLPPGKPGVGDVSRPFSPPIHSSSPPPIAPLARAESTSSISSTNSLSAATTPTVENEQPSLVWFDRGKFYLTFEGSSRGPSPLTMGAQDTLPVAAAFTETVNAYFKGADPSKCIVKITGEMVLSFPAGITRHFANNPSPAALTFRVINSSRLEHVLPNPQLLCCDNTQNDANTKEFWVNMPNLMTHLKKVSEQKPQATYYNVDMLKYQVSAQGIQSTPLNLAVNWRCEPGSTDLRIDYKYNTDAMTTAVALNNVQFLVPIDGGVTKLQAVLPPAVWNAEQQRILWKIPDISQKSENGGVGSLLARFQLSEGPSKPSPLVVQFTSEGSTLSGCDIELVGAGYRFSLIKKRFAAGKYLADN
For B2, the binding entry was “no binding” in test [1] and “binds” in test [2].
